Reference: publication PMC12886896
These are yes or no findings as the source states them, for the method shown. A result given as binding can be weak or reduced; the word gives no strength. Tags and fused reporters may be left off the sequences shown. Values belong to the binder of their own block, whether it stands above or below them.

Amino acid sequences for entries named in this document (tags omitted). A change or cut given only in a name is not applied to a line headed by its entry.
UniProt Q9U2G8: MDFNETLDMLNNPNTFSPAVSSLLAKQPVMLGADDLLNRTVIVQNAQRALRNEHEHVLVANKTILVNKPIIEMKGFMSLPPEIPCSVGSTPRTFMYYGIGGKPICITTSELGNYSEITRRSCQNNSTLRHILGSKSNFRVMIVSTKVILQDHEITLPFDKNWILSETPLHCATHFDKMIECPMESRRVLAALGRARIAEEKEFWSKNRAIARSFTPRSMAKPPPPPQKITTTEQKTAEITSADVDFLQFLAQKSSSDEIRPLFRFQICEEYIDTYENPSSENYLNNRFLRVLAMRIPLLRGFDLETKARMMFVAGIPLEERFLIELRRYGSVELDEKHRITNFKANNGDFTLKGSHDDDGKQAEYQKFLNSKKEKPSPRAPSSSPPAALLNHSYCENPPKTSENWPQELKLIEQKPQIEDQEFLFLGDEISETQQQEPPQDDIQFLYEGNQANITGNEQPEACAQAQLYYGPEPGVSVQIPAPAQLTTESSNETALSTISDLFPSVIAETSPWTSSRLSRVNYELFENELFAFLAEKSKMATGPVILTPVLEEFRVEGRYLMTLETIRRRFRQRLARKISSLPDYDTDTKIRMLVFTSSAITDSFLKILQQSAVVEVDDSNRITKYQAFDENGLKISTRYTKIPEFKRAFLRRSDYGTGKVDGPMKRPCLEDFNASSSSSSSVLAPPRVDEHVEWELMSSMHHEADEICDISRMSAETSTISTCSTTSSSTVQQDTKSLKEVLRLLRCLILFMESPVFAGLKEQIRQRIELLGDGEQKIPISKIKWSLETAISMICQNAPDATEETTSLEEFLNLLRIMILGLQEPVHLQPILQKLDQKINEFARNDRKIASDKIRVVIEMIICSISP

What was measured:
Experiment in all cases: pull-down; GST-tagged proteins immobilised on GST beads, incubated with MBP-tagged proteins in 20 mM Tris-HCl pH 7.5, 150 mM KCl, 2 mM MgCl2, 1 mM DTT, 0.01% Triton-X 100, 5% glycerol, room temperature 1 h; 10 washes; Western blot with anti-MBP; both purified
[1] = molecular target: GST-tagged SET-24 fragment S7 (SET domain alone) (C. elegans)
[2] = molecular target: GST-tagged SET-24 fragment S8 (fragment S5 with the SET domain deleted in-frame) (C. elegans)
[3] = molecular target: GST-tagged full-length SET-24 (C. elegans) (UniProt Q9U2G8)

- binding [1]: binds
- binding [2]: binds
- binding [3]: binds
B1: MBP-tagged H1 N-terminal fragment of HCF-1 (1-378aa) (domain or fragment, UniProt G5EC23 1-378)
chain: MDEDVGLEATNYSRGDESRSEEQEKNVVRWRIVQQSTGPNPKPRHGHRAVVLKELIVIFGGGNEGMIDELHAYNTQKREWTAPQCCGDVPTPAAAFGAISLGNKIYRFGGMTEYGKYTNDLYELQSTRWEWRRLNPRVHSNGHLPCPRIGHSFVVSQKSQKAYVFGGLSNDLNDPKRNVPHYLDDLYVINLSGPQHLIWEKLNATGPGPISRESHTAVIYEKDSISRMVVYGGMNGVRLGDLWYLNLNTLHWTEIKFDDPRTGIPPMPRSLHSSVLIGDKMFVYGGWVPLLEHASTEQQTEKEWKCTSSLGCWNITEDRWVPLHLYCSDEDTIPRGRAGHCAAAVGDRMYIWSGRDGYRKAWSNQVCCRDMWLLDTIL

- binding [3]: binds
B2: MBP-tagged full-length HCF-1 (protein, UniProt G5EC23 1-782)
chain: MDEDVGLEATNYSRGDESRSEEQEKNVVRWRIVQQSTGPNPKPRHGHRAVVLKELIVIFGGGNEGMIDELHAYNTQKREWTAPQCCGDVPTPAAAFGAISLGNKIYRFGGMTEYGKYTNDLYELQSTRWEWRRLNPRVHSNGHLPCPRIGHSFVVSQKSQKAYVFGGLSNDLNDPKRNVPHYLDDLYVINLSGPQHLIWEKLNATGPGPISRESHTAVIYEKDSISRMVVYGGMNGVRLGDLWYLNLNTLHWTEIKFDDPRTGIPPMPRSLHSSVLIGDKMFVYGGWVPLLEHASTEQQTEKEWKCTSSLGCWNITEDRWVPLHLYCSDEDTIPRGRAGHCAAAVGDRMYIWSGRDGYRKAWSNQVCCRDMWLLDTILPEQPGKVQLGRAGFNSLEISWPIVQGASGYFLQIGFGDAKEQSVSPIKRATTSPRKQPSIVPPSQKETEQSPKKPQGTAPSIISTQGTTYTAPADPKPATDEGGLPQDLFEDTEKNETASPKRSNDAQSADSSTCEQKKTDESGLEEDSEKDQKPSDAGETDEMKEENGDDDLPWFDVGIIDKATINVTHYFNDRQQSLEKQLNDLIDHNAFKCVNDSVFTTEDKIPLINGQSYRFRVSAINGLGKGAWSETASCKTCVPGYPSAPSSIRITKSHEGAQLTWEPPSNTNISGKIIEYSVYLAVKNQSANSADSQLAFMRVYCGPQADCQVLQSNLGTAFVDQTNKPAIIFRIAARNEKGYGPATQVRWLQDQQKIPVRTNYPNNSGFIYQQHGGQQKRARFDHQ

- binding [3]: no binding
B3: MBP-tagged C-terminal fragment of HCF-1 (379–782aa) (domain or fragment, UniProt G5EC23 379-782)
chain: PEQPGKVQLGRAGFNSLEISWPIVQGASGYFLQIGFGDAKEQSVSPIKRATTSPRKQPSIVPPSQKETEQSPKKPQGTAPSIISTQGTTYTAPADPKPATDEGGLPQDLFEDTEKNETASPKRSNDAQSADSSTCEQKKTDESGLEEDSEKDQKPSDAGETDEMKEENGDDDLPWFDVGIIDKATINVTHYFNDRQQSLEKQLNDLIDHNAFKCVNDSVFTTEDKIPLINGQSYRFRVSAINGLGKGAWSETASCKTCVPGYPSAPSSIRITKSHEGAQLTWEPPSNTNISGKIIEYSVYLAVKNQSANSADSQLAFMRVYCGPQADCQVLQSNLGTAFVDQTNKPAIIFRIAARNEKGYGPATQVRWLQDQQKIPVRTNYPNNSGFIYQQHGGQQKRARFDHQ
